# Experimental data taken from the supplement of paper PMC10849652.
# The chains behind the UniProt entries cited, without tags or fusion partners. Where a name states a change or a piece, a line headed by the entry shows the natural chain unless it says otherwise.
# UniProt Q03154: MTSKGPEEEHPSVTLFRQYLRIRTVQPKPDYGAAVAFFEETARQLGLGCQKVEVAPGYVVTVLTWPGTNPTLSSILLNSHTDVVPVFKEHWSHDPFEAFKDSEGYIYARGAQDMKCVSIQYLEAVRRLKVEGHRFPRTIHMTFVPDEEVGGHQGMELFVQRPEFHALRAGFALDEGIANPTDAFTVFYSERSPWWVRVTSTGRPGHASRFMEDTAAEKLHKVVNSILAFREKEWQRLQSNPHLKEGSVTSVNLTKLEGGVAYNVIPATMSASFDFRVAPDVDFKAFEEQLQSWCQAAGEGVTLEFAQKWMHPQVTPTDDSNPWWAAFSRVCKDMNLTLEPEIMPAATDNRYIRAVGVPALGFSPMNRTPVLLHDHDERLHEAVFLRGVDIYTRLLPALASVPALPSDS
# UniProt P07311: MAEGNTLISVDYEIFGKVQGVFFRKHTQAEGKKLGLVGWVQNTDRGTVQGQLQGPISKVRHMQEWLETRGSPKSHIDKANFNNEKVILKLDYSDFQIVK
# UniProt Q86V24: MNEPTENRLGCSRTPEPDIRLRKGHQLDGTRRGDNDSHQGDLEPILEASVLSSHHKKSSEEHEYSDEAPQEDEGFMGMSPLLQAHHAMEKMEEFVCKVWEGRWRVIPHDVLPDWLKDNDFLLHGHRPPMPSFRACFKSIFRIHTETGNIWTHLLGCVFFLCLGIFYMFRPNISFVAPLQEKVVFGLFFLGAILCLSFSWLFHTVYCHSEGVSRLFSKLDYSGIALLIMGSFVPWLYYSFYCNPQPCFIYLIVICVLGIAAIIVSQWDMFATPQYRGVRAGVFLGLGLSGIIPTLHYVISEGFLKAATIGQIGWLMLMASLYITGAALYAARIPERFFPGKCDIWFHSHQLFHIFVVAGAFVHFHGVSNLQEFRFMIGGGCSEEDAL
# UniProt Q9Y305: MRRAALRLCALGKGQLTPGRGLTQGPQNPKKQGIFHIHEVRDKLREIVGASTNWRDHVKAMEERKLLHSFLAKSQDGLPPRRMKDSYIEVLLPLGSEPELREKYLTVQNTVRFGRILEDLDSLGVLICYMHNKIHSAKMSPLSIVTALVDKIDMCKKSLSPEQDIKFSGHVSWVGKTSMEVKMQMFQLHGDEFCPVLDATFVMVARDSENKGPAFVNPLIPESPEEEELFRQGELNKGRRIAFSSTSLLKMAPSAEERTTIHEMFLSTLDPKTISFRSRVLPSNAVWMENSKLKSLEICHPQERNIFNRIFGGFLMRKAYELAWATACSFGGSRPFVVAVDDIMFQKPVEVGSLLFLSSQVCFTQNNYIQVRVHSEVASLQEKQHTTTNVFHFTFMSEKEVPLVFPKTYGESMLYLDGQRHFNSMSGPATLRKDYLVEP
# UniProt P00813: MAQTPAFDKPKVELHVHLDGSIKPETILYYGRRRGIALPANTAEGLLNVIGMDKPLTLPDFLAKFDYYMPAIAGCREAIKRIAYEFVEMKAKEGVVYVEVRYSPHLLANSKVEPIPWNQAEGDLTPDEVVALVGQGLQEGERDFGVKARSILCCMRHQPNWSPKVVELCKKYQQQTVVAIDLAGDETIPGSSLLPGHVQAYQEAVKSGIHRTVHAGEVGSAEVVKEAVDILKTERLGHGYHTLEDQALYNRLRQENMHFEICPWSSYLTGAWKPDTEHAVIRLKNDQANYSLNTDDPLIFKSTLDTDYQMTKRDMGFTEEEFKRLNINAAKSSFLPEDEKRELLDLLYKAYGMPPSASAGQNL
# UniProt O14672: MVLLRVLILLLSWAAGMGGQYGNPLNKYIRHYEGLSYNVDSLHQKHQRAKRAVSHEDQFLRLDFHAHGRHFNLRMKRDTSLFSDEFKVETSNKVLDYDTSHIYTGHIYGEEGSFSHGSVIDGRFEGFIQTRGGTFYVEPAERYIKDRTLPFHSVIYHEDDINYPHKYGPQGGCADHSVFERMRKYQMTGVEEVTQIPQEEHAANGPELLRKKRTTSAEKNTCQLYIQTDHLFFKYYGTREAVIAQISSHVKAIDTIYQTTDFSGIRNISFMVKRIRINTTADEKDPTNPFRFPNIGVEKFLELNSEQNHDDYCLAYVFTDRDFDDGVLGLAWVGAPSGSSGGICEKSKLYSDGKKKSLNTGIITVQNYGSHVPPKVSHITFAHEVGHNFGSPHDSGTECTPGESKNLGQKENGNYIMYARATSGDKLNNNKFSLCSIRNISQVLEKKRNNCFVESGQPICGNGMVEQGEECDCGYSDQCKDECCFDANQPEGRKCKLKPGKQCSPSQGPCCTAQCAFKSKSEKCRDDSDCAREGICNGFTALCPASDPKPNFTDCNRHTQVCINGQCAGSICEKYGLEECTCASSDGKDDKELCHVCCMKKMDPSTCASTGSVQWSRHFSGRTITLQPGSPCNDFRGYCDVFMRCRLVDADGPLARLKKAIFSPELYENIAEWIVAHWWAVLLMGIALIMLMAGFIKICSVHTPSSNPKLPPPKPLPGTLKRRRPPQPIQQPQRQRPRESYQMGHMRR
# UniProt Q9UHB7: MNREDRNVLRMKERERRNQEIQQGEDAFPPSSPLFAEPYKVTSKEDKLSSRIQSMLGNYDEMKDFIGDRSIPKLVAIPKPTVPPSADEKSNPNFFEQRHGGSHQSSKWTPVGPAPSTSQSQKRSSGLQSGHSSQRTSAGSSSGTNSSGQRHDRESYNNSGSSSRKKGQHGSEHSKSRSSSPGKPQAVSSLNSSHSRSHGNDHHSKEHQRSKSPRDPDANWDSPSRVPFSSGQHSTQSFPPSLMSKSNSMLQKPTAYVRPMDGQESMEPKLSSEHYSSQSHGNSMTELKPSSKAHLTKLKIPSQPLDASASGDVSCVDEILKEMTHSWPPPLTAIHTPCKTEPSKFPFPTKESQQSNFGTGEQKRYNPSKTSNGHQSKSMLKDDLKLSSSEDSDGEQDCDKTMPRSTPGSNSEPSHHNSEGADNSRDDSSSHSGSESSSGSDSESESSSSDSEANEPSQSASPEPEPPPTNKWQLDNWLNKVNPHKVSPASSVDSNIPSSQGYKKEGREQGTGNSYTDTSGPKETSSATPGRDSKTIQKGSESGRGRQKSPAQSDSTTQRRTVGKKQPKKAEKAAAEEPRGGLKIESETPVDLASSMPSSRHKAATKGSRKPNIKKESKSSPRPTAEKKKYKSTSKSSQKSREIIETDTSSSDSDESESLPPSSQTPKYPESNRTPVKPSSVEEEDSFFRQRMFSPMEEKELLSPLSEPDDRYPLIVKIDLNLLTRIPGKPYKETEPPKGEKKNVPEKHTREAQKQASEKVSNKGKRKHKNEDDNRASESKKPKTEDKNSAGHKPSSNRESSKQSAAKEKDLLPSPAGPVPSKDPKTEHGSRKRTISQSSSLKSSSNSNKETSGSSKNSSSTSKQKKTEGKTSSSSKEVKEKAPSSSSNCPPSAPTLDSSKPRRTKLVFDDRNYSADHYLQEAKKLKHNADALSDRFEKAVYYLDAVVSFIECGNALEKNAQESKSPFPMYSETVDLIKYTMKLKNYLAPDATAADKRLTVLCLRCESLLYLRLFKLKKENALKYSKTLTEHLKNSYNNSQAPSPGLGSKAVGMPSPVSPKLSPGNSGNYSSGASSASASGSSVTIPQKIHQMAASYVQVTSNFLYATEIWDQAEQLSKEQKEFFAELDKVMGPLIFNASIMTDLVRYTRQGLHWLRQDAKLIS
# UniProt P42330: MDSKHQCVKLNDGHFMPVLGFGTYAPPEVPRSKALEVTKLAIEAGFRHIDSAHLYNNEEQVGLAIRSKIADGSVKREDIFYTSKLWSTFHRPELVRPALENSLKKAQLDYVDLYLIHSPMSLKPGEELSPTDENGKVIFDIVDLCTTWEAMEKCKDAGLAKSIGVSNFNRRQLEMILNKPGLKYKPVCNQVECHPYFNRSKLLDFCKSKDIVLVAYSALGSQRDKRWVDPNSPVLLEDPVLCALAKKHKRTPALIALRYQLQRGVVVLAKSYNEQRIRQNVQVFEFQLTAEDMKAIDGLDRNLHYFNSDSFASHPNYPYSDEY
# UniProt P35611: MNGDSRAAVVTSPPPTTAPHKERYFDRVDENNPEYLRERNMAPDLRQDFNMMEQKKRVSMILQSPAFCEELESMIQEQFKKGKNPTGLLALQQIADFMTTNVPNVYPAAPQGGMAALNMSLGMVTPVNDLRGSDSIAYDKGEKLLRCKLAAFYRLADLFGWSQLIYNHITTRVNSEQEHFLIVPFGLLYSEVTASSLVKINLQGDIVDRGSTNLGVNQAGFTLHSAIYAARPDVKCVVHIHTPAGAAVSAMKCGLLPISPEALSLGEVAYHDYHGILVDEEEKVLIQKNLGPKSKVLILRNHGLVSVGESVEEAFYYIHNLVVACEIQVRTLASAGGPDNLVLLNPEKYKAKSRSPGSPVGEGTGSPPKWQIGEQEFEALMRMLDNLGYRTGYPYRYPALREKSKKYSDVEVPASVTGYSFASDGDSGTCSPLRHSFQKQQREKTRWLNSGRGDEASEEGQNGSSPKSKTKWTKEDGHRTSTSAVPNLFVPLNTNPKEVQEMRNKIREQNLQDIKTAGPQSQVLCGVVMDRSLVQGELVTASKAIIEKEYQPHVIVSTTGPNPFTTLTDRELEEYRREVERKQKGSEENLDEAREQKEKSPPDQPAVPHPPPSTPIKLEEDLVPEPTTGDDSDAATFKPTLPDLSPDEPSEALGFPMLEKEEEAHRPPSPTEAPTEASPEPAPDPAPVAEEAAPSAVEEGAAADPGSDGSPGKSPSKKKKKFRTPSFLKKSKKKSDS
# UniProt Q96SZ5, whole entry, looked up: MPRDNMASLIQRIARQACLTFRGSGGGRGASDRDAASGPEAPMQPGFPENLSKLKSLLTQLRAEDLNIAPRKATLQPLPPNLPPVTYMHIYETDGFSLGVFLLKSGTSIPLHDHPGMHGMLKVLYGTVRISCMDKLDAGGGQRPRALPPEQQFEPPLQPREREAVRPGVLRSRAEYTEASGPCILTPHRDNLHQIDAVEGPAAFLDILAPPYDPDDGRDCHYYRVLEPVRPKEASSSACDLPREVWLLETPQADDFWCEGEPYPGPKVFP
# UniProt P54922: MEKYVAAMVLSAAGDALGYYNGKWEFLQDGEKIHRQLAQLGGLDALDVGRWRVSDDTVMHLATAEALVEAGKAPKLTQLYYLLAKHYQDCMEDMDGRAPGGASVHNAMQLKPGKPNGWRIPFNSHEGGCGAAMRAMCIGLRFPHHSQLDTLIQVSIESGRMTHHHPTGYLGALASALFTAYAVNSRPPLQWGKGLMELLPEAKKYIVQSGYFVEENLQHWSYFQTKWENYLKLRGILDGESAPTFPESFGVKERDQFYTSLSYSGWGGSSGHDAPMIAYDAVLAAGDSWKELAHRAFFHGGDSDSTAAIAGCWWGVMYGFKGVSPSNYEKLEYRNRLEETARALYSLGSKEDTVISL
# UniProt P51825: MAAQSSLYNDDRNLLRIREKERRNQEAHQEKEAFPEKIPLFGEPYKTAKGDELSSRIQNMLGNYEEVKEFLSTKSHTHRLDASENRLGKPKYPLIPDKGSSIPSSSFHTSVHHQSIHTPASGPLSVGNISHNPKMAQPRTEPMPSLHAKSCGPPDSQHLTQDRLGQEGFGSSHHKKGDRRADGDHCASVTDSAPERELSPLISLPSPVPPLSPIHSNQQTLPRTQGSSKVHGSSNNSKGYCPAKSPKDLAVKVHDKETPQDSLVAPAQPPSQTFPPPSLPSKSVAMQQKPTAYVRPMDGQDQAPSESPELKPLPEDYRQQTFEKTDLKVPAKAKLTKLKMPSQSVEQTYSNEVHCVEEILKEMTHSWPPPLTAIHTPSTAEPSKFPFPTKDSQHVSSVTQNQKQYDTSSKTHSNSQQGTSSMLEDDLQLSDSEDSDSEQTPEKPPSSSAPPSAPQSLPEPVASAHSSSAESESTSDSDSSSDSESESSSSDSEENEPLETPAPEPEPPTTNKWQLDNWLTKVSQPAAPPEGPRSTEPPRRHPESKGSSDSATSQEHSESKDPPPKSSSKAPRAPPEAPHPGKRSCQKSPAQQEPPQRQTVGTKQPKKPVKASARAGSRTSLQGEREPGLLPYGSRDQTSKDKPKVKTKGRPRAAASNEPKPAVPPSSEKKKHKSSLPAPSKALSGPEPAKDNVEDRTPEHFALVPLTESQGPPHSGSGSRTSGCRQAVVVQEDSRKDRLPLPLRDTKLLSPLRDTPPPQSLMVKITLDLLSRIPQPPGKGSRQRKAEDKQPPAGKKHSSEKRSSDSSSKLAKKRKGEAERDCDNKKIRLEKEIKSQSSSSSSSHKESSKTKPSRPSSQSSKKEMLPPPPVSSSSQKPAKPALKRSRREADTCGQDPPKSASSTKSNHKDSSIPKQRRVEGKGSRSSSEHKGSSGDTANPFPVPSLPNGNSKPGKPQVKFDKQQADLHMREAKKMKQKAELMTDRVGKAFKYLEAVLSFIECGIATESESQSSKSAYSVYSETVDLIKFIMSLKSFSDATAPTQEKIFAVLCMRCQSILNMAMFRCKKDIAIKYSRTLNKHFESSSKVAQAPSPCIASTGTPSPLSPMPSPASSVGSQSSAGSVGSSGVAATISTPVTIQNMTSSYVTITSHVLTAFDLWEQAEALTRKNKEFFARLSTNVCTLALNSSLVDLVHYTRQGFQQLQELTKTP
# This is one part of the list.
# Compound: CC1=C(C=C(C=C1)NC(=O)C2=CC(=CC=C2)C(C)(C)C#N)NC3=CC4=C(C=C3)N=CN(C4=O)C
# Experiment: log2 fold change, soluble protein after heating vs DMSO (PISA); higher = thermal stabilisation; K562 lysate, 10 uM; active = over 0.2 and 3.5 SD of the protein, either way, in both replicates (recomputed)
# Summary of the method: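 Thermal stability, expressed as log-two fold change relative to solvent controls, is given from duplicates. Crude K562 extract in PBS pH 7.4 with 1 mM MgCl2, at 1 mg/mL protein, was treated with 10 μM compound for 30 min and heated in aliquots for 3 min across 48°C-58°C. After pooling, adjustment to 0.5% NP-40 at 4°C and centrifugation at 21,000xg for 90 min, supernatant protein was measured by TMTpro 16plex LC-MS/MS with channel sums equalised.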
row,Target,log2 fold change
1,AIP (UniProt O00170),inactive: 0.011
2,ACY1 (UniProt Q03154),inactive: -0.036
3,ACTG1 (UniProt I3L4N8),inactive: -0.181
4,ACYP1 (UniProt P07311),inactive: -0.013
5,ADIPOR2 (UniProt Q86V24),inactive: -0.029
6,ACSL1 (UniProt P33121),inactive: -0.01
7,ACOT9 isoform 4 (UniProt Q9Y305),inactive: -0.056
8,AGFG1 isoform 4 (UniProt P52594),inactive: 0.027
9,ADA (UniProt P00813),inactive: 0.044
10,ADAM10 (UniProt O14672),inactive: -0.006
11,AFF4 (UniProt Q9UHB7),inactive: 0.009
12,AKNA (UniProt Q7Z591),inactive: -0.034
13,ACSM3 (UniProt Q53FZ2),inactive: -0.022
14,ADH5 (UniProt P11766),inactive: 0.015
15,ADNP (UniProt Q9H2P0),inactive: 0.039
16,AKR1C3 (UniProt P42330),inactive: 0.02
17,ADD1 isoform 3 (UniProt P35611),inactive: 0.005

# In a second layout: results already given.
row | Target | log2 fold change
6 | ACSL1 (UniProt P33121) | inactive: -0.01
7 | ACOT9 isoform 4 (UniProt Q9Y305) | inactive: -0.056

# (further entries)

row,Target,log2 fold change
1,ADO (UniProt Q96SZ5),inactive: 0.032
2,ACSL4 (UniProt O60488),inactive: -0.044
3,AKR1A1 (UniProt P14550),inactive: 0
4,ACP1 isoform 2 (UniProt P24666),inactive: 0.015
5,ACTR1A (UniProt P61163),inactive: -0.009
6,AKAP12 (UniProt Q02952),inactive: 0.003
7,AK4 (UniProt P27144),inactive: 0.012
8,AGPS (UniProt O00116),inactive: -0.177
9,"ACTB, A0A2R8Y793",inactive: 0.001
10,ACTR2 (UniProt P61160),inactive: 0.004
11,ACSF3 (UniProt Q4G176),inactive: -0.044
12,AGTPBP1 (UniProt Q9UPW5),inactive: 0.077
13,AHSA1 (UniProt O95433),inactive: 0.01
14,ADPRH (UniProt P54922),inactive: -0.099
15,AFF1 isoform 2 (UniProt P51825),inactive: 0.023
16,AGAP3 isoform 4 (UniProt Q96P47),inactive: 0.031
17,AIFM1 (UniProt O95831),inactive: -0.001
